Reference: PubChem BioAssay AID2778 (National Center for Advancing Translational Sciences (NCATS), 2010)
The shares of active, inactive and inconclusive entries below differ from those in the screen. Potencies beside an inconclusive call are fits to weak or partial responses and may not hold up. Active and inactive are the calls of the source. Calls follow the shape of the dose curve; as a rule, active = well fitted inhibition curve with a large enough effect; inconclusive = small, poorly fitted or top-dose-only effect, or effect the other way; inactive = flat fitted curve, though single readings scatter.
Potency is read from the fitted curve at half-maximal effect.

Protein sequences, listed by entry. Tags and fused reporters are not part of them.
UniProt O00255, whole entry, looked up: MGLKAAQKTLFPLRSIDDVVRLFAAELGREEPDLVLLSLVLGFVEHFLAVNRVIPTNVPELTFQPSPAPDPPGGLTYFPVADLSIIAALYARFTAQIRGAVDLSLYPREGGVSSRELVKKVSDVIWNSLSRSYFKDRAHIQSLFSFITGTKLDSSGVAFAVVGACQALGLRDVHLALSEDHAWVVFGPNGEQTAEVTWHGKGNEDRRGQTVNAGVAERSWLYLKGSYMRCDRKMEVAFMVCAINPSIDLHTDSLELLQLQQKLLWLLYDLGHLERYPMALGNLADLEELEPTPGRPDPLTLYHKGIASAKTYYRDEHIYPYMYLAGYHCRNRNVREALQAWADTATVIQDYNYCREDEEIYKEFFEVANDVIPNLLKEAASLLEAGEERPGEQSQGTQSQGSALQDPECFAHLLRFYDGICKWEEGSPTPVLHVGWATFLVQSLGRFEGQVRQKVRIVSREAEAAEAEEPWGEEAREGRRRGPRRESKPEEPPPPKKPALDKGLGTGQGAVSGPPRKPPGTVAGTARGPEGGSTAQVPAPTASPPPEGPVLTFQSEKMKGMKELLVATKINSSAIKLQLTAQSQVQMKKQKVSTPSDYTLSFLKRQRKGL

Each compound was assayed against Menin (Homo sapiens) (UniProt O00255) (assay: Confirmation of Inhibitors Targeting the Menin-MLL Interaction in MLL Related Leukemias: Confirmation in an HTRF (commercial TR-FRET) Assay using His-tagged menin and biotin-labeled MLL peptide). Settings: His-menin / biotin-MLL peptide binding.
Excerpt: qHTS Assay for Inhibitors Targeting the Menin-MLL Interaction in MLL Related Leukemias
NIH Chemical Genomics Center [NCGC]
NIH Molecular Libraries Probe Centers Network [MLPCN]
Assay Submitter (PI): Jolanta Grembecka, Tomasz Cierpicki, University of Virginia
Translocations of the MLL (Mixed Lineage Leukemia) gene are frequently found in human leukemias affecting both children and adults. Fusion of MLL to one of more than 60 genes results in generation of oncogenic proteins upregulating Hox genes, which are vital to blood cell development. Patients harboring fusion of the MLL gene suffer from aggressive leukemias and respond poorly to available therapies. All of the oncogenic fusion proteins have a preserved N-terminal fragment of MLL that has been identified to interact with menin. It has been recently discovered that association with menin is critical to the leukemogenic activity of the MLL fusion oncoproteins. Selective targeting of the menin-MLL interaction could provide an attractive therapeutic approach to develop novel drugs for MLL-related leukemias. Small molecules blocking the menin-MLL interaction should reverse the oncogenic potential of MLL fusion proteins.
We have developed and optimized a fluorescence polarization-based assay for the identification of Menin-MLL inhibitors. The assay was run employing two different MLL-derived peptides. The present assay uses a 12 amino acid peptide labeled with fluorescein at its N-terminus. This peptide consists of the menin high affinity binding motif from MLL and is potently bound by menin. Another peptide with a mutated sequence, labeled with Texas Red, was used in parallel as a less stringent screen for inhibitors.
The present assay uses an alternate technology to confirm hits from the primary screen - homogeneous time resolved fluorescence (HTRF).
The Menin protein, the MLL-wild type (w.t.) derived peptide (N-terminal 12 amino acids), the MLL-derived peptide labeled with Texas Red and the MLL-w.t. peptide labeled with Fluorescein were kindly supplied by laboratory of Dr. Jolanta Grembecka, University of Virginia. All protein and peptide solutions were stored in single use aliquots at -80C. The Eu3+ Cyrptate-conjugated mouse monoclonal antibody anti-6 Histidine (Eu3+-AB) and the Streptavidin-XL665 conjugate (XL665) were purchased from Cisbio International (Bedford, MA). All antibody and XL665 conjugate solution stocks were stored in single use aliquots at -20C. The Buffer components for all assays were purchased from Sigma-Aldrich (St. Louis, MO) and Invitrogen (Carlsbad, CA).
1. HTRF reaction buffer: 50 mM Tris-HCl pH 7.5, 50 mM NaCl, 1mM DTT.
Before use, 0.05% BSA is added.
2. His6-Menin protein, MLL-w.t. labeled with biotin.
Stored in singe use aliquots at -80C.
3. MLL-w.t. unlabeled peptide as positive control: 10 uM final in HTRF buffer.
1. Prepare His6-Menin at 200 nM, MLL-w.t.-biotin at 80 nM in HTRF buffer.
2. Prepare His6-Menin at 200 nM, MLL-w.t.-biotin at 80 nM and 10 uM MLL-w.t. unlabeled mixture in HTRF buffer.
3. Dispense 10 ul per well of reagent in step 1 in columns 2, 4-24 in a black 384 well plate, dispense 10 ul per well of reagents from steps 2 in column 1. Incubate plate at ambient for 15 minutes.
4. Transfer 1 uL per well of compound to plate and incubate at ambient for 1 hr.
5. Dispense 10uL of the donor (6His-Cryptate, 3.5 nM final conc.) and acceptor (SA_XL, 10nM final conc.) complex in the HTRF buffer with 0.01% BSA. Incubate for 1h.
In the case of `CN(C)C(CNc1ncnc2sc3c(c12)CCCCC3)c1ccco1` (stereo not given), the Potency was inconclusive: 99.9 µM [inhibitor, single point].
`CN(C)c1ccc(C2CC(=O)C=C(Nc3ccccc3N)C2)cc1` (stereo not given) was tested, and the Potency was inconclusive: 79.4 µM [inhibitor, partial curve].
For `COc1ccccc1NS(=O)(=O)c1cc(NC(=O)Nc2cccc(C)c2)ccc1N1CCCCC1`, the Potency was inconclusive: 63.1 µM [inhibitor, partial curve].
With `NC(=O)[C@@H]1CCCNc2c(I)cc([N+](=O)[O-])cc2C(=O)N[C@@H](CCCN=C(N)N)C(=O)N[C@@H](CCCN=C(N)N)C(=O)N1` the Potency was “inactive”.
With `CCN(CC)Cc1cc2[nH]c3c4ccc(Cl)cc4ncc3c2cc1OC` the Potency was inconclusive: 112 µM [inhibitor, single point].
In the case of `COc1ccc2[nH]c3c(C)c4ccncc4c(C)c3c2c1`, the Potency was active: 89.1 µM.
In the case of `COc1cc(OC)cc(C(=O)N/N=C/c2ccc(OC)c(COc3ccc4ccccc4c3)c2)c1`, the Potency was “inactive”.
`CCc1ccc2c(c1)C(NC(C)=O)C(=O)N2CCN1CCOCC1` (stereo not given) was tested, and the Potency was inconclusive: 89.1 µM [inhibitor, single point].
In the case of `CCCC[n+]1c2ccccc2cc2ccccc21`, the Potency was inconclusive: 100 µM [inhibitor, partial curve].
For `CCC[n+]1c2ccccc2cc2ccccc21`, the Potency was inconclusive: 89.1 µM [inhibitor, partial curve].
With `O=C1c2ccccc2C(=O)c2c1ccc(O)c2O` the Potency was inconclusive: 178 µM [activator, partial curve].
For `O=c1oc2c(O)c(O)cc3c(=O)oc4c(O)c(O)cc1c4c23`, the Potency was inconclusive: 631 µM [inhibitor, single point].
With `CS(=O)(=O)c1ccc2nc(NC(=O)Nc3cccc(Cl)c3)sc2c1` the Potency was active: 112 µM.
In the case of `O=C(Nc1cc(Br)ccc1O)c1cc(-c2cccs2)on1`, the Potency was inconclusive: 44.6 µM [inhibitor, partial curve].
In the case of `Cc1ccc(NC(=O)CN(C)C(=O)COc2cccc3cccnc23)cc1`, the Potency was “inactive”.
With `Cc1ccc(C(C[N+](=O)[O-])c2c(C)[nH]n(-c3ccccc3)c2=O)cc1` (stereo not given) the Potency was “inactive”.
`O=c1c2ccccc2nc(N/N=C/c2c(O)ccc3ccccc23)n1O` was tested, and the Potency was “inactive”.
`CCCC(c1nnnn1Cc1ccco1)N1CCN(C2CCCC2)CC1` (stereo not given) was tested, and the Potency was inconclusive: 501 µM [inhibitor, partial curve].
`CCOc1cc(C(c2c(C)[nH][nH]c2=O)c2c(C)[nH][nH]c2=O)cc(Br)c1OC` was tested, and the Potency was “inactive”.
`COc1ccc(S(=O)(=O)Nc2cc(SCC(=O)O)c(O)c3ccccc23)cc1` was tested, and the Potency was inconclusive: 158 µM [activator, partial curve].
In the case of `COc1ccc(/C=C(\C#N)C(=O)NCc2ccccc2)cc1`, the Potency was “inactive”.
For `Cc1cc(N/N=C/c2ccc(O)cc2)c2cccc(C)c2n1`, the Potency was inconclusive: 316 µM [inhibitor, single point].
For `O=C(O)CSc1cc(NS(=O)(=O)c2ccc(Br)cc2)c2ccccc2c1O`, the Potency was active: 89.1 µM.
With `COc1ccc(OCCCn2ccnc2)cc1` the Potency was inconclusive: 89.1 µM [activator, single point].
`COc1ccc(NC2=C(NCCO)C(=O)c3ccccc3C2=O)cc1` was tested, and the Potency was inconclusive: 79.4 µM [activator, full curve].
With `COc1cccc(C(C[N+](=O)[O-])c2c(C)[nH]n(-c3ccccc3)c2=O)c1` (stereo not given) the Potency was inconclusive: 631 µM [inhibitor, partial curve].
With `Cc1[nH][nH]c(=O)c1C(c1c(C)[nH][nH]c1=O)c1cn(Cc2ccccc2Cl)c2ccccc12` the Potency was inconclusive: 631 µM [inhibitor, single point].
`N#Cc1ccc(OCC(O)CN2CCN(C(c3ccccc3)c3ccccc3)CC2)cc1` (stereo not given) was tested, and the Potency was inconclusive: 100 µM [inhibitor, partial curve].
For `CC(C)Sc1nc(N2CCOCC2)c2c3c(sc2n1)COC(C)(C)C3`, the Potency was active: 316 µM.
For `Cc1cc2[nH]c3c(c[n+](C)c4ccccc34)c2cc1C`, the Potency was inconclusive: 89.1 µM [inhibitor, single point].
`CCCCC(=O)NC(=S)Nc1nnn(CCC)n1` was tested, and the Potency was “inactive”.
In the case of `CCC(=O)Nc1ccc(-c2cc(-c3ccccc3)nc(-c3ccc(NC(=O)CC)cc3)n2)cc1`, the Potency was inconclusive: 794 µM [inhibitor, partial curve].
With `O=C(CN1C(=O)/C(=C/c2cccc(Br)c2)SC1=S)NC1=NCCS1` the Potency was inconclusive: 79.4 µM [inhibitor, partial curve].
`COc1cc2c(cc1NC(=S)NC(=O)c1c(OC)cccc1OC)oc1ccccc12` was tested, and the Potency was inconclusive: 631 µM [inhibitor, partial curve].
For `c1cc(CN2CCCNCCNCCCNCC2)ccc1CN1CCCNCCNCCCNCC1`, the Potency was inconclusive: 631 µM [inhibitor, partial curve].
With `CCOC(=O)N1CCN(Cc2nnc(-c3ccccc3C)o2)CC1` the Potency was “inactive”.
With `C/C(=N\NC(=O)c1nnn(-c2nonc2N)c1C)c1ccc(-c2ccccc2)cc1` the Potency was inconclusive: 50.1 µM [inhibitor, full curve].
In the case of `O=C(/C=C/c1ccccc1)Nc1nnc(SCC(=O)c2ccc3ccccc3c2)s1`, the Potency was inconclusive: 79.4 µM [inhibitor, partial curve].
In the case of `COc1ccccc1NS(=O)(=O)c1cc(NC(=O)Nc2ccccc2)ccc1N1CCCCC1`, the Potency was inconclusive: 70.7 µM [inhibitor, partial curve].
`CN(C)CCCOc1ccc2c(c1)Sc1ccccc1CC2=O` was tested, and the Potency was “inactive”.
